Data published in PMC3537735.
Where two headings read alike, the source gives them in different places. Results are given in words; binding and its absence hold for the method and conditions named. Binding seen in cells or lysates may run through a third protein. Here binding means that the protein was enriched with, or labelled near, the bait; the list need not be complete. Where a sequence is shown, tags or fusion partners need not be part of it.

Protein sequences, listed by entry. Tags and fused reporters are not part of them.
UniProt O70133: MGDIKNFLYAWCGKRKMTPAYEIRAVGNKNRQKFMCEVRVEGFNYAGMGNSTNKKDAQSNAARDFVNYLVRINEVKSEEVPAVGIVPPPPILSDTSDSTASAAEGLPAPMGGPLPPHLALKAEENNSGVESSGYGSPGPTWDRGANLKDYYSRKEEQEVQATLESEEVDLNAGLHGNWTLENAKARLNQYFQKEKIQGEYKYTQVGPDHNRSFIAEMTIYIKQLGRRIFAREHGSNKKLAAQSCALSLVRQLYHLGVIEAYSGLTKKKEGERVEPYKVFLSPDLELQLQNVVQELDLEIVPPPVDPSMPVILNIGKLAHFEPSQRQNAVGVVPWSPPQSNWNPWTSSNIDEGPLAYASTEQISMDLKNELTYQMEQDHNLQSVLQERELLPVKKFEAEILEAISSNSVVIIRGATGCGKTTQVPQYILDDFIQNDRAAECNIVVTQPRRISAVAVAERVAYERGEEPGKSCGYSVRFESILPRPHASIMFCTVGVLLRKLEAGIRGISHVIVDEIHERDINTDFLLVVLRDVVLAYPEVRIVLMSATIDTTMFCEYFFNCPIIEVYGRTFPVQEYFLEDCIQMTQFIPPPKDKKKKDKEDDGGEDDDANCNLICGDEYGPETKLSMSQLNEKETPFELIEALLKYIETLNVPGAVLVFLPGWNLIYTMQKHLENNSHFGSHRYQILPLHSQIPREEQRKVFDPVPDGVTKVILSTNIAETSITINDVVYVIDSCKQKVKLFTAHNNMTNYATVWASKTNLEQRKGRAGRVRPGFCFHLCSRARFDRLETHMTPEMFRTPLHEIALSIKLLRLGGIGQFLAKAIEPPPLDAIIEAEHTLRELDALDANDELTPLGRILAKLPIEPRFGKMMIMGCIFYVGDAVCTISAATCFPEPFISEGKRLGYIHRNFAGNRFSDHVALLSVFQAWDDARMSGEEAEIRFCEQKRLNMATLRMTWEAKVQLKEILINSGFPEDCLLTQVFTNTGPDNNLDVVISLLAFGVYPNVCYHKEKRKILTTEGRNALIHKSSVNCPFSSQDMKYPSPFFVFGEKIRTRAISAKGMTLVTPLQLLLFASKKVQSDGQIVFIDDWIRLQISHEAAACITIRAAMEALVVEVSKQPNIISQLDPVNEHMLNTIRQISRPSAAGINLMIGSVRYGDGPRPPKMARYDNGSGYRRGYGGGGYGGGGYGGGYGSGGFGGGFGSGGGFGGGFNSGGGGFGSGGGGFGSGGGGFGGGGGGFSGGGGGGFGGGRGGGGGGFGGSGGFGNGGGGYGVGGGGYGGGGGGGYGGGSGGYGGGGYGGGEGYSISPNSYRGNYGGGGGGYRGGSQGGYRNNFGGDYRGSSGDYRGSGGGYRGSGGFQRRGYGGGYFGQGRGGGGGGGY
UniProt P17879: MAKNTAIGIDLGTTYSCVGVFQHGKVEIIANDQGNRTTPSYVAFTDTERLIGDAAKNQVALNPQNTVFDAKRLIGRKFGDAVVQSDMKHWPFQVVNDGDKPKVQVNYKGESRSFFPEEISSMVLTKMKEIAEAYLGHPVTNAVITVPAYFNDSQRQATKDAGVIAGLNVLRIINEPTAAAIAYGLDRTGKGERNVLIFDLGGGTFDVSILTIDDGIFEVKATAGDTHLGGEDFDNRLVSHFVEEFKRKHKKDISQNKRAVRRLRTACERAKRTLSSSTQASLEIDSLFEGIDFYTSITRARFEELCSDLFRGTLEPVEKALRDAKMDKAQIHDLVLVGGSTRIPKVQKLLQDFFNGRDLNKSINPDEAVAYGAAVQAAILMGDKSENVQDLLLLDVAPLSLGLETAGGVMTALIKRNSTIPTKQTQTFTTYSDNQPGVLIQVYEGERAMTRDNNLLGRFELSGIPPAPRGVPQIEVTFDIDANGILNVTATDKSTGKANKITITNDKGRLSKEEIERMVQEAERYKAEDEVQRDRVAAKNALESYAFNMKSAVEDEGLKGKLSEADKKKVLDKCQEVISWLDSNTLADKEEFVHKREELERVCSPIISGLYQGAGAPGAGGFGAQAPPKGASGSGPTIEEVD
UniProt Q9WTI7: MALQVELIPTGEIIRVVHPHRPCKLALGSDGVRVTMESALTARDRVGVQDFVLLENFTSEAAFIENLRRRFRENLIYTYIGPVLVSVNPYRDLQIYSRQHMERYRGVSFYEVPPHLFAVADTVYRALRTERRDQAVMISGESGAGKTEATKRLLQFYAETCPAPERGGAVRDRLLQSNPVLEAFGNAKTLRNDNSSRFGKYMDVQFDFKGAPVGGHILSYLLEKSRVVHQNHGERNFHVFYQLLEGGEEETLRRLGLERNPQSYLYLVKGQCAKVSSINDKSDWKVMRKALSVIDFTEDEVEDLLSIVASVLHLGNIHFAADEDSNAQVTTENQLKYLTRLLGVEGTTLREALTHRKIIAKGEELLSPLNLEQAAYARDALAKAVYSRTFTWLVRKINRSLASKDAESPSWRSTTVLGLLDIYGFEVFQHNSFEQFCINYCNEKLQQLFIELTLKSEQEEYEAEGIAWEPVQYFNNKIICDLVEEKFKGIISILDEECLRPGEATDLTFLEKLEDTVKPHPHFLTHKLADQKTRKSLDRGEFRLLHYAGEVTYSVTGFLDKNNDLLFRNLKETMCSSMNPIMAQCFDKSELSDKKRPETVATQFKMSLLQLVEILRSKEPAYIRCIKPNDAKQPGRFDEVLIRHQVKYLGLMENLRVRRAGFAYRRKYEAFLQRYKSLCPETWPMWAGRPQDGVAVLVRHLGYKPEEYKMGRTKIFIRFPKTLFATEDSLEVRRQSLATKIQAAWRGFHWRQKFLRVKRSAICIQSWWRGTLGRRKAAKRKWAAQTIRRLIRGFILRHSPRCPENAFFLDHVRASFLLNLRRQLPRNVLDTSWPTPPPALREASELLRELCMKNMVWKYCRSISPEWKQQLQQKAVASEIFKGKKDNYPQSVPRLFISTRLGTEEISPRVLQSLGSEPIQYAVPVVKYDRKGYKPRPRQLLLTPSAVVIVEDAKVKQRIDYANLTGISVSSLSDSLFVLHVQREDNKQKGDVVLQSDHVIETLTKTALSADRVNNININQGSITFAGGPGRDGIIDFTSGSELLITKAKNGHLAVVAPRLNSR

T1: LMX1B-myc-HIS fusion protein (UniProt O88609)
T1 sequence: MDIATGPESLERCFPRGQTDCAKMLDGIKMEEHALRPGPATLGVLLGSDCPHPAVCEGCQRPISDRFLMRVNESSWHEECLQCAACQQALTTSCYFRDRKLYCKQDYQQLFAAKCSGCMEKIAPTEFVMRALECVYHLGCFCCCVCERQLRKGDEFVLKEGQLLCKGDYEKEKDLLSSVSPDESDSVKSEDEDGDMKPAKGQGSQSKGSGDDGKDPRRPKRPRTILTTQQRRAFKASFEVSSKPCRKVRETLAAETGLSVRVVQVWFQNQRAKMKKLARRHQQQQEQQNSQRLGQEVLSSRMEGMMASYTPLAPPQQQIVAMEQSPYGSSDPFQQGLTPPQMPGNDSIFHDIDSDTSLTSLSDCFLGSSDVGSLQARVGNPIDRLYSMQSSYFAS

B1: Glucocorticoid receptor DNA-binding factor 1 (protein, UniProt Q91YM2 1-1499)
chain: MMMARKQDVRIPTYNISVVGLSGTEKEKGQCGIGKSCLCNRFVRPSADEFHLDHTSVLSTSDFGGRVVNNDHFLYWGEVSRSLEDCVECKMHIVEQTEFIDDQTFQPHRSTALQPYIKRAAATKLASAEKLMYFCTDQLGLEQDFEQKQMPDGKLLVDGFLLGIDVSRGMNRNFDDQLKFVSNLYNQLAKTKKPIVVVLTKCDEGVERYIRDAHTFALSKKNLQVVETSARSNVNVDLAFSTLVQLIDKSRGKTKIIPYFEALKQQSQQIATAKDKYEWLVSRIVKNHNENWPSVSRKMQASPEYQDYVYLEGTQKAKKLFLQHIHRLKHEHIERRRKLYLAALPLAFEALIPNLDEVDHLSCIKAKKLLETKPEFLKWFVVLEETPWDATSHIDNMENERIPFDLMDTVPAEQLYETHLEKLRNERKRAEMRRAFKENLETSPFITPGKPWEEARSFIMNEDFYQWLEESVYMDIYGKHQKQIIDRAKEEFQELLLEYSELFYELELDAKPSKEKMGVIQDVLGEEQRFKALQKLQAERDALILKHIHFVYHPTKETCPSCPACVDAKIEHLISSRFIRPSDRNQKNSLSDLNIDRINLVILGKDGLARELANEIRALCTNDDKYVIDGKMYELSLRPIEGNVRLPVNSFQTPTFQPHGCLCLYNSKESLSYVVESIEKSRESTLGRRDNHLVHLPLTLILVNKRGDTSGETLHSLIQQGQQIASKLQCVFLDPASAGIGYGRNINEKQISQVLKGLLDSKRNLNLVSSTASIKDLADVDLRIVMCLMCGDPFSADDVLSPVLQSQTCKSSHCGSSNSVLLELPIGLHKKRIELSVLSYHSSFSIRKSRLVHGYIVFYSAKRKASLAMLRAFLCEVQDIIPIQLVALTDGAIDVLDNDLSREQLTEGEEIAQEIDGRFTSIPCSQPQHKLELFHPFFKDVVEKKNIIEATHMYDNVAEACSTTEEVFNSPRAGSPLCNSNLQDSEEDVEPPSYHLFREDATLPSLSKDHSKFSMELEGNDGLSFIMSNFESKLNNKVPPPVKPKPPVHFDITKDLSYLDQGHREGQRKSMSSSPWMPQDGFDPSDYAEPMDAVVKPRNEEENIYSVPHDSTQGKIITIRNINKAQSNGSGNGSDSEMDTSSLERGRKVSAVSKPVLYRTRCTRLGRFASYRTSFSVGSDDELGPIRKKEEDQASQGYKGDNAVIPYETDEDPRRRNILRSLRRNTKKPKPKPRPSITKATWESNYFGVPLTTVVTPEKPIPIFIERCIEYIEATGLSTEGIYRVSGNKSEMESLQRQFDQDHNLDLAEKDFTVNTVAGAMKSFFSELPDPLVPYSMQIDLVEAHKINDREQKLHALKEVLKKFPKENHEVFKYVISHLNKVSHNNKVNLMTSENLSICFWPTLMRPDFSSMDALTATRSYQTIIELFIQQCPFFFYNRPISEPPGAAPGSPSAMAPTVPFLTSTPATSQPSPPQSPPPTPQSPMQPLLSSQLQAEHTL
B2: Lamina-associated polypeptide 2, isoforms alpha/zeta (protein, UniProt Q61033 1-693)
chain: MPEFLEDPSVLTKDKLKSELVANNVTLPAGEQRKDVYVQLYLQHLTARNRPPLAAGANSKGPPDFSSDEEREPTPVLGSGASVGRGRGAVGRKATKKTDKPRLEDKDDLDVTELSNEELLDQLVRYGVNPGPIVGTTRKLYEKKLLKLREQGTESRSSTPLPTVSSSAENTRQNGSNDSDRYSDNDEGKKKEHKKVKSARDCVPFSELASTPSGAFFQGISFPEISTRPPLGRTELQAAKKVQTTKRDPPRETCTDTALPGKGQTHKLAPGRSLFIPSESSYDRCVEKSSSPSSQREFAARLVSAAASPSLIRETTTTYSKDIVENICRGGKSRAQPLRAEEPGVSDQSVFSSEREVLQESERSQVISPPLAQAIRDYVNSLLVQGGVGSLPGTSDSVPTLDVENICKRLSQSSYQDSESLSPPRKVPRLSEKPARGGDSGSCVAFQNTPGSEHRSSFAKSVVSHSLTTLGVEVSKPPPQHDKIEASEPSFPLHESILKVVEEEWQQIDRQLPSVACRYPVSSIEAARILSVPKVDDEILGFISEATPRAATQASSTESCDKHLDLALCRSYEAAASALQIAAHTAFVAKSLQADISQAAQIINSDPSDAQQALRILNRTYDAASYLCDAAFDEVRMSACAMGSSTMGRRYLWLKDCKISPASKNKLTVAPFKGGTLFGGEVHKVIKKRGNKQ

Columns and labels:
[1] = target: T1, LMX1B-myc-HIS fusion protein; experiment: affinity purification with mass spectrometry; IP with anti-HIS or anti-LMX1B (two separate LMX1B IPs) on lysate of MN9D cells overexpressing LMX1B-HIS (control: goat or rabbit IgG); bands cut from silver-stained SDS gels, nanoLC-ESI-MS/MS, Mascot
[2] = target: T1, LMX1B-myc-HIS fusion protein; experiment: as above; remark: listed apart in the source

| Molecule | binding [1] | binding [2] |
| --- | --- | --- |
| DEAH (Asp-Glu-Ala-His) box polypeptide 9 (from UniProt O70133 1-1380) | binds | – |
| Heat shock protein 70 (from UniProt P17879 1-642) | binds | – |
| Myosin 1c (from UniProt Q9WTI7 1-1063) | binds | – |
| B1 | – | binds |
| B2 | – | binds |
